Measured values: patent US20190369104A1, “P27 TYROSINE PHOSPHORYLATION AS A MARKER OF CDK4 ACTIVITY AND METHODS OF USE THEREOF” (THE RESEARCH FOUNDATION FOR THE STATE UNIVERSITY OF NEW YORK, priority 2016, published 2019)
No constants are given. Whether binding was seen depends on the method and setting. Some binding calls cover weakened binding; strength is not graded here. For some of these results: Where a sequence is shown, tags or fusion partners need not be part of it.

Protein sequences, listed by entry. Tags and fused reporters are not part of them. Residues count along the entry.
UniProt P42685, residues 42-110: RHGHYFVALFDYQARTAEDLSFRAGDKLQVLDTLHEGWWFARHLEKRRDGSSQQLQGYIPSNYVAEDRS
UniProt P07947, residues 91-152: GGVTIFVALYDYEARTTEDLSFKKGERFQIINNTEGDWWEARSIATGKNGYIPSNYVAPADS

Assays:
[1] = biological target: T1, GST-K3 (GST-tagged p27 PxxP peptide K3) (human); test: phage-ELISA on immobilised GST-K3
T1 sequence: GSVEQTPKKPGLRRRQ

[2] = biological target: recombinantly produced His-tagged p27 (full-length p27) (human) (UniProt P46527); test: phage-ELISA
[3] = biological target: recombinantly produced His-tagged p27 (full-length p27) (human) (UniProt P46527); test: phage-ELISA, SH3 phage on immobilised His-p27
[4] = biological target: GST (GST domain expressed in the absence of any p27 sequence) [GST: P08515]; test: phage-ELISA on immobilised GST

Substance	binding [1]	binding [2]	binding [3]	binding [4]
Abl SH3 domain (displayed on phage) (from UniProt P00519 61-121)	binds			
Brk SH3 domain (displayed on phage) (from UniProt Q13882 12-70)	binds	binds	binds	
Frk SH3 domain (displayed on phage) (from UniProt P42685 42-110)			binds	binds
Yes SH3 domain (displayed on phage) (from UniProt P07947 91-152)	binds			
